Data from patent publication US20220002440A1.
These are yes or no findings as the source states them, for the method shown. Some binding calls cover weakened binding; strength is not graded here.

Amino acid sequences for entries named in this document (tags omitted). A change or cut given only in a name is not applied to a line headed by its entry.
UniProt P36222: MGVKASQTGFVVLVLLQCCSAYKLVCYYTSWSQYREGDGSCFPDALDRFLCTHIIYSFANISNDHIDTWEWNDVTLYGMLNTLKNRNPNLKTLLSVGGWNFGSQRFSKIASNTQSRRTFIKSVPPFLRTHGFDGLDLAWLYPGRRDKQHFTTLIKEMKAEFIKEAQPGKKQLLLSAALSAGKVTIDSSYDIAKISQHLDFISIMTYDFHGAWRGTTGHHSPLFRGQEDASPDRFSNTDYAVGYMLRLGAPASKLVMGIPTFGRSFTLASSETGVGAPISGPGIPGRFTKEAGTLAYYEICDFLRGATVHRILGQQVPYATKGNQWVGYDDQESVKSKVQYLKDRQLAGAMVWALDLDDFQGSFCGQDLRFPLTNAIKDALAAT

Experiments:
[1] = molecular target: recombinant human CHI3L1 protein (human) (UniProt P36222); assay: ELISA, FIG. 2
[2] = molecular target: recombinant human CHI3L1 protein (human) (UniProt P36222); assay: two-site sandwich ELISA, AB1 as capture antibody, FIG. 3
[3] = molecular target: recombinant human CHI3L1 protein (human) (UniProt P36222); assay: two-site sandwich ELISA, AB1 bound to the solid phase

Measured: binding

B1: AB1 (CH568) (antibody, mouse IgG1, kappa, V domains shown)
VH: QVQLQQTGAELVKPGASVKMSCKASGYTFTSYNMHWLKQTPGQGLEWIGLISPGNGDTSYNQKFKGKATLTADKSSNTAYMQLSSLTSEDSAVYFCARGGPTVVAHYYAMDYWGQGTSVTVSS
VL: QIVLTQSPAIMSASPGERVTMTCSASSRVSYMHWYQQKSGTSPKRWIYDTSNLASGVPARFSGSGSGTSYSLTISTMEAEDAATYYCQQWSSNPLTFGAGTKLELKR
binds: [1] | [2] | [3]
